PubChem BioAssay AID504774, Drosophila RNAi Screening Center | 2011
The deposit covers about 23,000 reagents; shown is a random part of those that have a named target and a result. 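Values are quantile-normalised luminescence on an arbitrary scale; higher means more cells surviving MMS.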 The numbers tell different reagents against one gene apart. A plus sign joins genes that one reagent is predicted to hit. Not all columns of the deposit are shown. No sequences are given here.

Assay: 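Genes required for cells to withstand methyl methanesulphonate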 (primary screen)
Cell system: Drosophila Kc167 cells
Knock-down reagent: long dsRNA against Drosophila genes, about 0.25 µg dsRNA per well
Time to read-out: about 6 days: 3 days knock-down, then 3 days with or without MMS
Challenge: methyl methanesulphonate 0.004% (w/v) for 3 days after knock-down
Measurement: 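ATP-dependent luminescence as a measure of live cells in MMS-exposed wells, quantile normalised within each plate, with replicate values also given as a mean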
Reading the numbers: mean viability with MMS and viability with MMS: higher = more surviving cells after MMS

| mean viability with MMS | viability with MMS, replicate 1 | target | dsRNA no. |
| --- | --- | --- | --- |
| 3.39e6 | 3.75e6 | Nmda1 | 1 |
| 3.44e6 | 3.88e6 | JMJD6 | 1 |
| 3.73e6 | 4.31e6 | TwdlT | 1 |
| 3.48e6 | 3.96e6 | TwdlT | 2 |
| 3.50e6 | 3.83e6 | CG10793 | 1 |
| 3.70e6 | 4.19e6 | CG15499 (retired record) | 1 |
| 3.63e6 | 4.13e6 | CG12479 | 1 |
| 3.33e6 | 3.73e6 | 5PtaseI | 1 |
| 3.62e6 | 4.12e6 | 5PtaseI | 2 |
| 3.35e6 | 3.67e6 | t-cup | 1 |
| 3.49e6 | 4.01e6 | kat80 | 1 |
| 3.51e6 | 4.01e6 | kat80 | 2 |
| 3.41e6 | 3.61e6 | CG12299 | 1 |
| 3.50e6 | 3.96e6 | CG4375 | 1 |
| 3.23e6 | 3.68e6 | pxb | 1 |
| 3.75e6 | 3.69e6 | pxb | 2 |
| 3.79e6 | 4.35e6 | pxb | 3 |
| 3.71e6 | 4.11e6 | pxb | 4 |
| 3.52e6 | 3.90e6 | CG31909 | 1 |
| 3.49e6 | 4.07e6 | CG18190 | 1 |
| 3.40e6 | 3.86e6 | Plekhm1 | 1 |
| 3.48e6 | 3.95e6 | CG14694 | 1 |
| 2.98e6 | 3.63e6 | mago | 1 |
| 3.72e6 | 4.35e6 | Root | 1 |
| 3.74e6 | 4.23e6 | CG32440 | 1 |
| 3.52e6 | 4.02e6 | CG13545 | 1 |
| 3.37e6 | 3.84e6 | plh | 1 |
| 3.52e6 | 3.85e6 | CG4707 | 1 |
| 3.51e6 | 4.04e6 | CG13926 | 1 |
| 3.19e6 | 3.64e6 | Chro | 1 |
| 3.10e6 | 3.60e6 | hry | 1 |
| 3.38e6 | 3.66e6 | hry | 2 |
| 3.17e6 | 3.75e6 | Hmt4-20 | 1 |
| 3.53e6 | 3.83e6 | CanB | 1 |
| 3.49e6 | 4.06e6 | CG42820 + CG42819 | 1 |
| 3.70e6 | 4.48e6 | CG42820 + CG42819 | 2 |
| 3.62e6 | 4.13e6 | CG34028 | 1 |
| 3.55e6 | 4.03e6 | Tao | 1 |
| 3.60e6 | 4.07e6 | Tao | 2 |
| 3.55e6 | 4.00e6 | Tao | 3 |
| 3.49e6 | 4.01e6 | CG42564 | 1 |
| 3.51e6 | 4.01e6 | CG8051 | 1 |
| 3.45e6 | 3.96e6 | eag | 1 |
| 3.84e6 | 4.30e6 | eag | 2 |
| 3.47e6 | 4.00e6 | CG15878 | 1 |
| 3.45e6 | 3.87e6 | mRpL48 | 1 |

Sorted by “viability with MMS, replicate 1” (highest first): some entries from above
| mean viability with MMS | viability with MMS, replicate 1 | target | dsRNA no. |
| --- | --- | --- | --- |
| 3.79e6 | 4.35e6 | pxb | 3 |
| 3.49e6 | 4.01e6 | kat80 | 1 |
| 3.51e6 | 4.01e6 | kat80 | 2 |
| 3.50e6 | 3.96e6 | CG4375 | 1 |
| 3.75e6 | 3.69e6 | pxb | 2 |
| 3.23e6 | 3.68e6 | pxb | 1 |
| 3.35e6 | 3.67e6 | t-cup | 1 |
| 3.41e6 | 3.61e6 | CG12299 | 1 |

The results go on.
| mean viability with MMS | viability with MMS, replicate 1 | target | dsRNA no. |
| --- | --- | --- | --- |
| 3.49e6 | 4.01e6 | P5CDh1 | 1 |
| 3.42e6 | 3.97e6 | Sirt7 | 1 |
| 3.48e6 | 3.95e6 | PH4alphaSG1 | 1 |
| 3.41e6 | 3.82e6 | upd2 | 1 |
| 3.46e6 | 3.89e6 | CG5509 | 1 |
| 3.38e6 | 3.92e6 | CG32027 (retired record) | 1 |
| 3.53e6 | 3.77e6 | Corin | 1 |
| 3.66e6 | 4.11e6 | Urm1 | 1 |
| 3.41e6 | 3.81e6 | Amt | 1 |
| 3.49e6 | 3.82e6 | CG10550 | 1 |
| 3.38e6 | 3.82e6 | Lap1 | 1 |
| 3.62e6 | 4.12e6 | Dph3 | 1 |
| 3.47e6 | 4.05e6 | AIF | 1 |
| 3.60e6 | 4.17e6 | rdgBbeta | 1 |
| 3.73e6 | 4.25e6 | CG4000 | 1 |
| 3.59e6 | 4.09e6 | CG4000 | 2 |
| 3.65e6 | 4.17e6 | CG2269 | 1 |
| 3.35e6 | 3.83e6 | CG13630 | 1 |
| 3.27e6 | 3.65e6 | BtbVII | 1 |
| 3.45e6 | 3.99e6 | BtbVII | 2 |
| 3.55e6 | 3.94e6 | glob3 | 1 |
| 3.43e6 | 3.91e6 | Ank2 | 1 |
| 3.69e6 | 4.14e6 | Ank2 | 2 |
| 3.52e6 | 3.94e6 | Ank2 | 3 |
| 3.62e6 | 4.16e6 | Ank2 | 4 |
| 3.59e6 | 4.05e6 | Ank2 | 5 |
